This is an account of results in patent publication US20250241308A1, “COMPOSITIONS AND METHODS FOR CONTROLLING PESTS” (PYRONE SYSTEMS, INC., priority 2022, published 2025).

Format in all cases: in vivo
The subject of data set [1] is house fly strain CAR21 (S). Nature of the data set: Median lethal dose determination, house fly CAR21. Here is the method: (§1) 24-hour median lethal dose determinations of pogostone and permethrin were performed in three house fly strains and one stable fly strain. The KS17 resistant strain below is simultaneously resistant to organophosphates, carbamates, and synthetic pyrethroids.
(§2) 48-hour median lethal dose determinations of pogostone and permethrin were performed in three house fly strains. The KS17 resistant strain below is simultaneously resistant to organophosphates, carbamates, and synthetic pyrethroids.

For data set [2], the system named is house fly strain WHF (R). Nature of the data set: Median lethal dose determination, house fly WHF. As to the method:
as §1, §2

The subject of data set [3] is house fly strain KS17 (R). Nature of the data set: Median lethal dose determination, house fly KS17. As to the method:
as §1, §2

For `CC1(C)C(C=C(Cl)Cl)C1C(=O)OCc1cccc(Oc2ccccc2)c1` (stereo not shown) [Permethrin], the Slope in data set [1] (24-hour) turned out to be 4.7; in data set [1] (48-hour), 4.2; in data set [2] (24-hour), 1.6; in data set [2] (48-hour), 1.7.
As to `Cc1cc(O)c(C(=O)CCC(C)C)c(=O)o1` [pogostone], the Slope is reported as 4.6 in data set [1] (24-hour); 4.7 in data set [1] (48-hour); 2.7 in data set [2] (24-hour); 2.9 in data set [2] (48-hour); 3.1 in data set [3] (24-hour); 3.4 in data set [3] (48-hour).
